Some of the results follow. The main result of the screen is listed elsewhere. These columns were measured beside it and carry no call. For some assays here: The list favours compounds with an active or inconclusive main result. For some assays here: The note in brackets gives the kind of curve behind each potency; many fits are weak.
How the values were obtained:
[1] = qHTS Assay for Modulators of Human Peripheral Myelin Protein 22 (PMP22) Expression/Activity (AID 1967); details: Cell-based PMP22 reporter, dual-color luciferase ratio
Summary of the method: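 Mouse MSC80 Schwann cells carrying Pmp22 promoter–green click beetle luciferase plus EF-alpha–red luciferase control, dosed 24 h at 37 °C. Dual-filter luminescence, overlap-corrected; %Activity from green/red ratio normalised to untreated cells, concentration-response curves fitted.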

The chains behind the UniProt entries cited, without tags or fusion partners. Where a name states a change or a piece, a line headed by the entry shows the natural chain unless it says otherwise.
UniProt P40261: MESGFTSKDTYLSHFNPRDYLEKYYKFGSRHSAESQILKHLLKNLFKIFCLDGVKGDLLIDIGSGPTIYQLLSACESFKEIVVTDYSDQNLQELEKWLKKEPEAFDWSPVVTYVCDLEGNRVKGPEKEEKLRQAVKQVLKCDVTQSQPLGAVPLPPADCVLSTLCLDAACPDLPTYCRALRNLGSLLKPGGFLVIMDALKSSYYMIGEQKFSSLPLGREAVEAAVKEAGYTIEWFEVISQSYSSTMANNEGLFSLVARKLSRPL

[2] = A High-Content qHTS Against Drug Library for the Identification of Small Molecules that Inhibit DYT1 Early Onset Primary Dystonia-Associated Cell Pathology (AID 1645839); details: HEK293 Flp-In EGFP-delE TorsinA, punctate imaging, 48 h; measured here: cell count cytotoxicity
Summary of the method: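 High-content imaging quantified EGFP-TorsinA mislocalization in HEK293-derived cells inducibly expressing DYT1 mutant torsinA, after 48 h exposure to compound given together with tetracycline induction. Cell count served as a toxicity channel alongside %pathology.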

[3] = qHTS drug screen for cell cycle checkpoint inhibitors in PARPi-resistant BRCA-mutant ovarian cancer cell lines. (AID 1963452); details: PEO1/OlaR viability, CellTiter-Glo luminescence, 96 h
Summary of the method: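 PEO1, PEO4 and PEO1/OlaR ovarian cancer cells, 600 per well, exposed 96 h at 37C to a dilution series. Viability read by CellTiter-Glo luminescence, normalized to DMSO and empty wells; activity summarized as Z-AUC.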

[4] = S16 Schwann cell PMP22 intronic element beta-lactamase assay (AID 624044); details: S16 rat Schwann cells, PMP22 element beta-lactamase FRET, 24 h
Summary of the method: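 Beta-lactamase reporter under a PMP22 intronic regulatory element in stable S16 rat Schwann cells; 24 h compound exposure. 460 nm blue signal normalized between DMSO (0%) and potassium clavulanate, with 535 nm FRET tracking viability; curves classed by r2 and response.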

[5] = qHTS for identification of novel therapeutic agents for treatment of microphthalmiaassociated transcription factor (MiT) renal cell carcinoma (RCC) (AID 1963991); details: CellTiter-Glo, 48 h; for z-score: stronger effect = lower value
Summary of the method: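 Viability of three TFE3-fusion renal carcinoma lines measured by CellTiter-Glo after 48 h treatment with each of 1912 compounds at 11 concentrations. Responses scaled between DMSO (100%) and empty wells (0%) before curve fitting.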

[6] = qHTS Validation Assay to Find Inhibitors of Chronic Active B-Cell Receptor Signaling (AID 485345); details: ABC-DLBCL cells, chronic BCR signaling reporter
Summary of the method: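 Read-out: ratio of filter-corrected green (IkappaBalpha fusion) to red (native) luciferase signal in doxycycline-induced TMD8 cells after 4 h at 37C. Titration spanned 46 uM–3 nM; Data were normalised to basal cells and 10 uM MG-132 wells.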

[7] = qHTS assay for small molecule agonists of retinoid X receptor alpha signaling (AID 588544); details: HEK293T RXRa-UAS-bla, beta-lactamase reporter, 18 h; 530 nm emission
[8] = molecular target: Nicotinamide N-methyltransferase (Homo sapiens) (UniProt P40261); test: Confirmatory Screen for Target Class Profiling of Small Molecule Inhibitors of Methyltransferases (AID 1745852); details: MTase-Glo luminescence, SAH detection, recombinant enzyme; measured here: NNMT inhibition potency
[9] = measured here: PEO1 parental viability
[10] = measured here: 460 nm blue channel
[11] = TFE3-RCC UOK109 viability, measured here: UOK109 Z-AUC
[12] = TFE3-RCC viability, measured here: UOK124 Z-AUC
[13] = TFE3-RCC viability, measured here: UOK124 cell viability
[14] = TFE3-RCC viability, measured here: UOK145 Z-AUC
[15] = TFE3-RCC viability, measured here: UOK145 cell viability

Row | SMILES | AC50 ([1]; measured here: green reporter channel AC50, mouse Pmp22 promoter in mouse Schwann cells) | AC50 ([1]; measured here: red reporter channel AC50, EF-alpha promoter control reporter in MSC80 mouse Schwann cells) | AC50 [2] | AC50 [3, 9] | AC50 ([3]; measured here: PEO4 viability) | AC50 [4, 10] | z-score [5, 11] | z-score [5, 12] | AC50 [5, 13] | z-score [5, 14] | AC50 [5, 15] | AC50 ([6]; measured here: CBR control luciferase (viability counter)) | max response [7] | AC50 ([6]; measured here: CBG/CBR ratio read-out) | IC50 [8] | AC50 ([4]; measured here: 530 nm viability channel)
1 | CN[C@H]1CC[C@@H](c2ccc(Cl)c(Cl)c2)c2ccccc21 | 47.8 µM [falling, partial curve] | 33.8 µM [falling, full curve] | 7.08 µM [falling, partial curve, poor fit] | 19.5 µM [falling, partial curve] | 19.5 µM [falling, partial curve] |  |  |  |  |  |  |  |  |  |  | 
2 | CNC(=O)c1cc(Oc2ccc(NC(=O)Nc3ccc(Cl)c(C(F)(F)F)c3)cc2)ccn1 |  |  | 35.5 µM [falling, single point] | 4.9 µM [falling, full curve] | 5.49 µM [falling, partial curve] | 25.1 µM [falling, partial curve] | 0.467 | 0.938 | 23.5 µM [falling, partial curve] | -0.228 | 23.5 µM [falling, partial curve] |  |  |  |  | 
3 | Cc1cc2c(C(C)C)c(O)c(O)c(C=O)c2c(O)c1-c1c(C)cc2c(C(C)C)c(O)c(O)c(C=O)c2c1O |  |  | 1 µM [falling, full curve, poor fit] | 24.5 µM [falling, single point] | 27.5 µM [falling, single point] |  | 0.0522 | 0.157 | 20.9 µM [falling, partial curve] | -0.12 | 29.6 µM [falling, single point] | 25.9 µM [falling, single point] | -49.6% |  |  | 
4 | COc1cc2nc(N(C)CCCNC(=O)C3CCCO3)nc(N)c2cc1OC (stereo not given) |  |  | 35.5 µM [rising, single point] |  |  |  | 0.164 | 0.132 | 0.00148 µM [rising, full curve] | 1.27 |  |  |  |  |  | 
5 | OCCN1CCN(CCCN2c3ccccc3Sc3ccc(C(F)(F)F)cc32)CC1 |  |  | 0.562 µM [falling, full curve, poor fit] | 13.8 µM [falling, partial curve] | 19.5 µM [falling, partial curve] |  | -0.621 | -0.0598 | 20.9 µM [falling, partial curve] | -0.125 | 29.6 µM [falling, single point] |  |  | 18.4 µM [falling, single point] | 27.3 µM [falling, partial curve] | 
6 | CC1(CN2CCC(n3c(=O)[nH]c4ccccc43)CC2)OCc2ccccc2-n2cccc21 (stereo not given) |  |  | 35.5 µM [falling, single point] | 19.5 µM [falling, single point] | 15.5 µM [falling, single point] | 12.6 µM [falling, single point] | 0.7 | 0.201 |  | 0.299 | 23.5 µM [falling, partial curve, poor fit] |  |  |  |  | 
7 | O=C(CCCCCCC(=O)Nc1ccccc1)NO |  |  | 3.98 µM [falling, full curve, poor fit] | 3.89 µM [falling, full curve] | 8.71 µM [falling, partial curve] | 2.51 µM [falling, full curve] | -0.83 | -0.438 | 16.6 µM [falling, partial curve] | -0.508 | 13.2 µM [falling, partial curve] |  |  |  |  | 25.1 µM [rising, partial curve]
8 | Cc1c(C(=O)NN2CCCCC2)nn(-c2ccc(Cl)cc2Cl)c1-c1ccc(Cl)cc1 |  |  | 17.8 µM [falling, partial curve, poor fit] | 15.5 µM [falling, partial curve, poor fit] | 13.8 µM [falling, partial curve, poor fit] |  | 0.298 | 0.701 | 33.2 µM [falling, single point] | 0.325 | 23.5 µM [falling, partial curve] |  |  |  |  | 

Source: PubChem BioAssay (NCATS)
